From US20090075925A1, “Methods and Compositions Related to APOBEC-1 Expression” (priority 2006, published 2009)
Results are given in words; binding and its absence hold for the method and conditions named. Some results given as binding are weak or reduced against the parent protein; the word gives no strength.

Molecular target: T1, APOBEC-1 (as used in yeast two hybrid analyses and in the Drosophila S2 cell editing system) (UniProt P38483)
T1 sequence (looked up): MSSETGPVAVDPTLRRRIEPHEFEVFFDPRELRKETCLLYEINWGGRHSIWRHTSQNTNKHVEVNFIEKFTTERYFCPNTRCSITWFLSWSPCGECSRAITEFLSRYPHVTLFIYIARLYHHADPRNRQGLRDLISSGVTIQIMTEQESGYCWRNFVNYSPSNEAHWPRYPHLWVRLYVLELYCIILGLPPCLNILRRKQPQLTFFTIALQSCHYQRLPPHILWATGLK
Assay: yeast two hybrid, histidine prototrophy with increasing 3-aminotriazole

B1: ACF43 (protein)
chain: MESNHKSGDGLSGTQKEAALRALVQRTGYSLVQENGQRKYGGPPPGWDTTPPERGCEIFIGKLPRDLFEDELIPLCEKIGKIYEMRMMMDFNGNNRGYAFVTFSNKQEAKNAIKQLNNYEIRNGRLLGVCASVDNCRLFVGGIPKTKKREEILSEMKKVTEGVVDVIVYPSAADKTKNRGFAFVEYESHRAAAMARRRLLPGRIQLWGHPIAVDWAEPEVEVDEDTMSSVKILYVRNLMLSTSEEMIEKEFNSIKPGAVERVKKIRDYAFVHFSNREDAVEAMKALNGKVLDGSPIEVTLAKPVDKDSYVRYTRGTGGRNTMLQEYTYPLSHVYDPTTTYLGAPVFYAPQAYAAIPSLHFPATKGHLSNRALIRTPSVRGNIS
- binding: binds

B2: ACF45 (protein)
chain: MESNHKSGDGLSGTQKEAALRALVQRTGYSLVQENGQRKYGGPPPGWDTTPPERGCEIFIGKLPRDLFEDELIPLCEKIGKIYEMRMMMDFNGNNRGYAFVTFSNKQEAKNAIKQLNNYEIRNGRLLGVCASVDNCRLFVGGIPKTKKREEILSEMKKVTEGVVDVIVYPSAADKTKNRGFAFVEYESHRAAAMARRRLLPGRIQLWGHPIAVDWAEPEVEVDEDTMSSVKILYVRNLMLSTSEEMIEKEFNSIKPGAVERVKKIRDYAFVHFSNREDAVEAMKALNGKVLDGSPIEVTLAKPVDKDSYVRYTRGTGGRNTMLQEYTYPLSHVYDPTTTYLGAPVFYAPQAYAAIPSLHFPATKGHLSNRALIRTPSVRGCSRTPSIYLCFLTAVHAGVHHIHVQ
- binding: binds
